{"source": "PubChem BioAssay AID743454 – Peter MacCallum Cancer Centre | 2014", "screen": "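Knock-downs lowering viability or raising caspase 3/7 activity in vorinostat-treated resistant cells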 (primary screen)", "cell system": "human HCT116-VR colon cancer cells, selected for vorinostat resistance", "reagent": "siRNA pool against human genes, 40 nM siRNA pool", "duration": "vorinostat for 24 h, read-out about 72 h after transfection", "challenge": "vorinostat at 2.5 µM final", "read-out": "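Two measures, CellTiter-Fluor viability and luminescent caspase 3/7 activity, each as fold change against same-plate mock wells, mean of duplicates, then screen-wide robust z-score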", "reading the numbers": "viability robust z-score: higher = more viable cells than screen typical; caspase robust z-score: higher = more caspase 3/7 activity than screen typical", "rule for the call": "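a knock-down is a hit when classed RV1 or RV2 for lowered viability, or CA1 or CA2 for caspase activation; those lethal without drug were dropped; hits were retested singly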", "note": "The deposit covers about 18,000 reagents; this is an unselected part. Over the whole deposit, 450 (2.5%) got an active call. 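Single biological run; no consistent viability z cut-off exists, so the class columns, not z-scores, define the calls.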"}
{"target": "PHPT1 (phosphohistidine phosphatase 1)", "viability hit class": "no change", "caspase hit class": "no change", "viability robust z-score": 0.81, "caspase robust z-score": 0.9, "outcome": "inactive"}
{"target": "ACP2 (acid phosphatase 2, lysosomal)", "viability hit class": "no change", "caspase hit class": "no change", "viability robust z-score": -1, "caspase robust z-score": -0.15, "outcome": "inactive"}
{"target": "MTERF3 (mitochondrial transcription termination factor 3)", "viability hit class": "no change", "caspase hit class": "no change", "viability robust z-score": 1.12, "caspase robust z-score": 0.09, "outcome": "inactive"}
{"target": "MAP7 (microtubule associated protein 7)", "viability hit class": "no change", "caspase hit class": "no change", "viability robust z-score": 0.62, "caspase robust z-score": -0.99, "outcome": "inactive"}
{"target": "OR6V1 (olfactory receptor family 6 subfamily V member 1)", "viability hit class": "no change", "caspase hit class": "no change", "viability robust z-score": 0.7, "caspase robust z-score": 0.01, "outcome": "inactive"}
{"target": "ZNF780B (zinc finger protein 780B)", "viability hit class": "no change", "caspase hit class": "no change", "viability robust z-score": -0.08, "caspase robust z-score": -1.06, "outcome": "inactive"}
{"target": "RGPD1 (RANBP2 like and GRIP domain containing 1)", "viability hit class": "no change", "caspase hit class": "no change", "viability robust z-score": 0.26, "caspase robust z-score": 1.21, "outcome": "inactive"}
{"target": "NANOS2 (nanos C2HC-type zinc finger 2)", "viability hit class": "no change", "caspase hit class": "no change", "viability robust z-score": 0.64, "caspase robust z-score": -0.5, "outcome": "inactive"}
{"target": "UBTF (upstream binding transcription factor)", "viability hit class": "no change", "caspase hit class": "no change", "viability robust z-score": 0.85, "caspase robust z-score": 0.28, "outcome": "inactive"}
{"target": "CD22 (CD22 molecule)", "viability hit class": "no change", "caspase hit class": "no change", "viability robust z-score": 0.16, "caspase robust z-score": 1.15, "outcome": "inactive"}
{"target": "CELF3 (CUGBP Elav-like family member 3)", "viability hit class": "no change", "caspase hit class": "no change", "viability robust z-score": 0.47, "caspase robust z-score": -0.06, "outcome": "inactive"}
{"target": "FUT6 (fucosyltransferase 6)", "viability hit class": "no change", "caspase hit class": "no change", "viability robust z-score": -1.25, "caspase robust z-score": 1.5, "outcome": "inactive"}
